Experimental data reported in publication PMC3633930.
Results are given in words; binding and its absence hold for the method and conditions named. Binding seen in cells or lysates may run through a third protein. Some entries that bind do so weakly or less than the wild type.

The chains behind the UniProt entries cited, without tags or fusion partners.
UniProt Q9EQ60: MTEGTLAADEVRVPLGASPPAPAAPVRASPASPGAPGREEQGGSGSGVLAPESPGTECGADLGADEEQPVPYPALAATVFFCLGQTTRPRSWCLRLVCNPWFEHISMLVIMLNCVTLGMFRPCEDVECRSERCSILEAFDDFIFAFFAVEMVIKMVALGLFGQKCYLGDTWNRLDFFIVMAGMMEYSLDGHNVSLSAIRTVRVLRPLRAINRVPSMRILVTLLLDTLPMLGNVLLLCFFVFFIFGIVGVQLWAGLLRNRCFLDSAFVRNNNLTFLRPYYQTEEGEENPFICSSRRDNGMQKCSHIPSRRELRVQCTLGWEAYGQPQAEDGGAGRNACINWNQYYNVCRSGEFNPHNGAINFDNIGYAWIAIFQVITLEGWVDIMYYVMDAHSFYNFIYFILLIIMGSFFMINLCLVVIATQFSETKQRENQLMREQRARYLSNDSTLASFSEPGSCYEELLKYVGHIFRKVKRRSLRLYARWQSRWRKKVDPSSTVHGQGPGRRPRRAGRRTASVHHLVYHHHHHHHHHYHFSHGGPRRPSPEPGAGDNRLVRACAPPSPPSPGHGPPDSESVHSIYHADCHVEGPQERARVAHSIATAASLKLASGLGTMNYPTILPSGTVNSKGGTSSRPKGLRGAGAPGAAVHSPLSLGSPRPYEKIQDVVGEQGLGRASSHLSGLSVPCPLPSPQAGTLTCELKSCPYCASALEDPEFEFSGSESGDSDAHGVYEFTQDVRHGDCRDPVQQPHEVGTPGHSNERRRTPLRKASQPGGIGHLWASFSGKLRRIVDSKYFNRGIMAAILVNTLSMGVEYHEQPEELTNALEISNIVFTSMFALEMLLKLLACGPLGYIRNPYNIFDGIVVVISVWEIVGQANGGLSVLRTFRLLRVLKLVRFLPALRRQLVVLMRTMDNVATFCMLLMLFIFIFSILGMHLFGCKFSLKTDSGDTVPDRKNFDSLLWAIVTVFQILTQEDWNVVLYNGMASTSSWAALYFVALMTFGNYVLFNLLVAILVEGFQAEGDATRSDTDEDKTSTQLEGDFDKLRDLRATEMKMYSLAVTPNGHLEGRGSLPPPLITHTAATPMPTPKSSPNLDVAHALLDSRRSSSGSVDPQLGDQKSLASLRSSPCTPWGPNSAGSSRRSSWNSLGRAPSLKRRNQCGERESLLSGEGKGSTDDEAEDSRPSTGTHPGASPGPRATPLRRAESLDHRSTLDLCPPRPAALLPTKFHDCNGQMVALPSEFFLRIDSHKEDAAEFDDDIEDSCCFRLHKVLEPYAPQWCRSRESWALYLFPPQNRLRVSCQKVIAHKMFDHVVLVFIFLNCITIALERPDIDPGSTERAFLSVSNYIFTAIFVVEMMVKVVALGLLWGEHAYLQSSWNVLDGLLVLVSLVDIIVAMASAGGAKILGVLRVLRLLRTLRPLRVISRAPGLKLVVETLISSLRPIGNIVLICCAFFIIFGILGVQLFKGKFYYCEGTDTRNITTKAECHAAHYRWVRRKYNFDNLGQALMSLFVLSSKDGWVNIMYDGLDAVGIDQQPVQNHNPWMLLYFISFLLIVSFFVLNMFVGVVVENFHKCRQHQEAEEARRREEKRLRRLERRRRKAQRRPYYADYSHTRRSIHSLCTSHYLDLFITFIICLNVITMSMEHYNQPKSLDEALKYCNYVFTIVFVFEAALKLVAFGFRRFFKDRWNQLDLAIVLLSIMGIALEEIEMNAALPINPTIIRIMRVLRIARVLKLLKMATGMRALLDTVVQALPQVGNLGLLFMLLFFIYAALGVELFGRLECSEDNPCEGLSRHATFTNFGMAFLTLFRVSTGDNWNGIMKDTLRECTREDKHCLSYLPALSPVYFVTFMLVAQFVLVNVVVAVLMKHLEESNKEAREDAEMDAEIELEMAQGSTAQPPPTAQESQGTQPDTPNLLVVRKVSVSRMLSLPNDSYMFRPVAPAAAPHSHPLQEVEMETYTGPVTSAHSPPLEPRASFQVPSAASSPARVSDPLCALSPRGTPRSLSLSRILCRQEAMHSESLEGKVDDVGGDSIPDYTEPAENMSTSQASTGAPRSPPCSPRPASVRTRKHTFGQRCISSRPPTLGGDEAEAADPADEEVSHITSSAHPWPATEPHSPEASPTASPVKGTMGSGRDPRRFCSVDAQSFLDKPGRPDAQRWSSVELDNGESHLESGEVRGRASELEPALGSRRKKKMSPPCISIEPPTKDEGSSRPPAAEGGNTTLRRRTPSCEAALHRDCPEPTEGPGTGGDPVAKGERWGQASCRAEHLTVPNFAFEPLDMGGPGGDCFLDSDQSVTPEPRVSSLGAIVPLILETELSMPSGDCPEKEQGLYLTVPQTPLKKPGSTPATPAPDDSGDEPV
UniProt Q12791: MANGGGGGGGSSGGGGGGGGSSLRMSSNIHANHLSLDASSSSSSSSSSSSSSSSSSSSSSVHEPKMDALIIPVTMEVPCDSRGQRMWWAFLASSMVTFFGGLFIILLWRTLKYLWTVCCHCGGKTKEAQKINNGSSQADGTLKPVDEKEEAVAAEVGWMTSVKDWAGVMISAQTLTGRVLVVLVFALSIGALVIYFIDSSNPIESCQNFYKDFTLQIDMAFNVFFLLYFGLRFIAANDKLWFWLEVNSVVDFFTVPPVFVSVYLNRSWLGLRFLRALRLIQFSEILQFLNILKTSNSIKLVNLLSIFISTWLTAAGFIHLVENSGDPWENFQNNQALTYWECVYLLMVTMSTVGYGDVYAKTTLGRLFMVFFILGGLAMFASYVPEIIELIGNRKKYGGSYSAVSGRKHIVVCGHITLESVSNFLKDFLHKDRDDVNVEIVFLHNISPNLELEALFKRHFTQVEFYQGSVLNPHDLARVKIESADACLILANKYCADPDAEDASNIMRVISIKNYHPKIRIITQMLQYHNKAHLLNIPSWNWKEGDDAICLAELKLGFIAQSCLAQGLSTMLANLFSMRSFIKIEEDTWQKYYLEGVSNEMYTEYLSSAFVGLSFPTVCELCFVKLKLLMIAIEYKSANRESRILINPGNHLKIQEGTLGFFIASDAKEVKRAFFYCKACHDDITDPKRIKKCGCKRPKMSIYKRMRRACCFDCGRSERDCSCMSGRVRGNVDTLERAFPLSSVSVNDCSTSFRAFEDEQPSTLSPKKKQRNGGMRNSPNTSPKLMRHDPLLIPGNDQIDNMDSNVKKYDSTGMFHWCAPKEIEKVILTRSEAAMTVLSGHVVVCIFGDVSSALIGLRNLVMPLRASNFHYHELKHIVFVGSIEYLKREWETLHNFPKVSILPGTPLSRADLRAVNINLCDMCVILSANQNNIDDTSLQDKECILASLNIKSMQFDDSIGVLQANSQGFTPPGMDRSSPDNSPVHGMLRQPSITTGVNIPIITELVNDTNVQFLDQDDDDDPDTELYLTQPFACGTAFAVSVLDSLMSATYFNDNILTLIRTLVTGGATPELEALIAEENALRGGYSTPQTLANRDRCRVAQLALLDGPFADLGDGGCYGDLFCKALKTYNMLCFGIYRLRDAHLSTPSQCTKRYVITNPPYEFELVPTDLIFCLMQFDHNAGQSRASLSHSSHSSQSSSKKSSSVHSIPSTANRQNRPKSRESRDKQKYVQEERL
UniProt Q62976: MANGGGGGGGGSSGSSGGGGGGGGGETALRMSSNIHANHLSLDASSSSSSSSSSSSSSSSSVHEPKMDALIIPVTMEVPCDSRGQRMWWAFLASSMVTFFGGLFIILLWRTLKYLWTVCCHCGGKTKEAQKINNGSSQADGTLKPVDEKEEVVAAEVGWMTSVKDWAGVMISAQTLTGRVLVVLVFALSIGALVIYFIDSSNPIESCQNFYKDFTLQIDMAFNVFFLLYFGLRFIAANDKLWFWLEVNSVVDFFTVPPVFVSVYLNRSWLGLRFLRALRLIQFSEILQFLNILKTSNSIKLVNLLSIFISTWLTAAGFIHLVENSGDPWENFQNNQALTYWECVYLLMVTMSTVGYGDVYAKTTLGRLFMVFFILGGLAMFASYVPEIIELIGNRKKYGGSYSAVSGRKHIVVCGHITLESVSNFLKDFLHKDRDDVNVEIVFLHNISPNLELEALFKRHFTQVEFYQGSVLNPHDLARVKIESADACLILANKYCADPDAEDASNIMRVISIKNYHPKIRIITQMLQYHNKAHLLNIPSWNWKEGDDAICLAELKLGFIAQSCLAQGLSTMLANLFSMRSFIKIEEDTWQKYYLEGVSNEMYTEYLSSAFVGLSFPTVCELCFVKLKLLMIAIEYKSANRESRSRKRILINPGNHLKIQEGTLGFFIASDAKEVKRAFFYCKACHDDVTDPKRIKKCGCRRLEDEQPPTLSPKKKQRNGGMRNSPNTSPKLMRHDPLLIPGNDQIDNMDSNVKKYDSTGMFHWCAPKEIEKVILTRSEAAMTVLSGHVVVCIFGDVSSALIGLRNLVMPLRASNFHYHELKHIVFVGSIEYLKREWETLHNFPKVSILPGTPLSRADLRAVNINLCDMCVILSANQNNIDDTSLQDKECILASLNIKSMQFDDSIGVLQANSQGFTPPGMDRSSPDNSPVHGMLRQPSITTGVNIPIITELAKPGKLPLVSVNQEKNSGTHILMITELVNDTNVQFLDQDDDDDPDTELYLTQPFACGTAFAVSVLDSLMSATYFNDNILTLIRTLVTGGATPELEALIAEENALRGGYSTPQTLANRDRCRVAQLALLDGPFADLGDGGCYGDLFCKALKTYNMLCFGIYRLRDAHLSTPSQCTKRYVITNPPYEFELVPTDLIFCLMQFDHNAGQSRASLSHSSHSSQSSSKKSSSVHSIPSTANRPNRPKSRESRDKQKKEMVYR

Columns and labels:
[1] = target: Cav3.2 calcium channel α-subunit, full length, human (human) (UniProt O95180); test: co-IP; lysates of tsA-201 cells co-expressing Cav3.2 and myc-tagged KCa1.1 constructs; lysis in 50 mM Tris, 150 mM NaCl, 1% NP-40, 0.5% Na deoxycholate, 0.5% Triton X-100, pH 7.5; precipitated with polyclonal anti-Cav3.2 and Protein A/G beads; blots probed with anti-myc; bead only control
[2] = target: Cav3.2 calcium channel α-subunit, full length, human (human) (UniProt O95180); test: co-IP; tsA-201 cells co-expressing KCa1.1 and Cav3.2 with either β2 or β4 subunits; data not shown
[3] = target: Cav3.1 channel, endogenous in rat brain (rat (endogenous in brain)) (UniProt O54898); test: co-IP; lysates of rat brain; data not shown
[4] = target: Cav3.3 channel, endogenous in rat brain (rat (endogenous in brain)) (UniProt Q9Z0Y8); test: co-IP; lysates of rat brain; data not shown
[5] = target: Cav3.2 protein, endogenous in rat brain (rat (endogenous in brain)) (UniProt Q9EQ60); test: co-IP; lysates of rat whole brain, cerebellum and brain stem (pontine region); lysis in 50 mM Tris, 150 mM NaCl, 1% NP-40, 0.5% Na deoxycholate, 0.5% Triton X-100, pH 7.5; precipitated with anti-Cav3.2 and Protein A/G beads; blots probed with anti-KCa1.1; control without precipitating antibody

Row | binding [1] | binding [2] | binding [3] | binding [4] | binding [5] | Substance
1 | binds | binds | – | – | – | KCa1.1 potassium channel α-subunit, full length, myc-tagged, human (from UniProt Q12791 1-1236)
2 | – | – | binds | binds | binds | KCa1.1 protein, endogenous in rat brain (from UniProt Q62976 1-1209)
